Measured values published in patent publication US20140170136A1.
No constants are given. Whether binding was seen depends on the method and setting. Some binding calls cover weakened binding; strength is not graded here.

Assays:
equine NGF (equine) [1] = target: equine NGF (equine) (UniProt F6SVV7); assay: ELISA (FIG. 1)
equine NGF (equine) [2] = target: equine NGF (equine) (UniProt F6SVV7); assay: ELISA: CHO supernatant on NGF, goat anti-equine IgG-HRP, OD450, against mock supernatant
Protein A [3] = target: Protein A (UniProt P38507); assay: Protein A affinity chromatography; eluted fractions quantitated by NGF ELISA
Protein A [4] = target: Protein A (UniProt P38507); assay: Protein A affinity chromatography of CHO supernatant; antibody in fractions measured by quantitative ELISA
Protein A [5] = target: Protein A (UniProt P38507); assay: Protein A column, fractions shown by Western blot with anti-equine polyclonal antibody-HRP and Coomassie SDS-PAGE

Measured: binding

B1: eqN-HC2+eqN-kLC-1 (equinised αD11 anti-NGF antibody comprising the eqN-kLC-1 light chain and the eqN-HC2 (IgG2) heavy chain) (antibody)
heavy: QVQLKESGPGLVNPSQTLSLTCTVSGFSLTNNNVNWVRQAPGKGLEWVGGVWAGGATDYNSALKSRATITRDTSKSQVFLQMNSLTSEDTAVYYCARDGGYSSSTLYAMDAWGQGILVTVSSASTTAPKYFQLTPSCGITSDATVALGCLVSDYYPEPVTVSWNSGALTSGVHTFPSVLQSSGLYALSSMVTVPASTWTSETYICNVAHPASSTKVDKRIPPCVLSAEGVIPIPSVPKPQCPPYTHSKFLGGPSVFIFPPNPKDALMISRTPVVTCVVVNLSDQYPDVQFSWYVDNTEVHSAITKQREAQFNSTYRVVSVLPIQHQDWLSGKEFKCSVTNVGVPQPISRAISRGKGPSRVPQVYVLPPHPDELAKSKVSVTCLVKDFYPPDISVEWQSNRWPELEGKYSTTPAQLDGDGSYFLYSKLSLETSRWQQVESFTCAVMHEALHNHFTKTDISESLGK
light: DIVMTQSPASLSASLGETVTIECRASEDIYNALAWYQQKPGQSPKLLIYNTDTLHTGVPSRFSGSGSGTDYSLTINSLQSEDVASYFCQHYFHYPRTFGQGTKLELKRDDAKPSAFIFPPSSEELSSGSASVVCLVYGFYPSGATINWKVDGLAKTSSFHSSLTEQDSKDNTYSLSSTLTLPKADYEAHNVYACEVSHKTLSSPLVKSFKRQDC
binds: all assays above
